Results published in patent US8846681B2, “Pyrimidyl cyclopentanes as AKT protein kinase inhibitors” (Array BioPharma, Inc., priority 2006, dated 2014).
Counter-ions that a name gives are not always drawn. Some of these results come from one statement about several compounds together.

Chains of the proteins cited; added tags and fusions are not shown. Lines headed by an entry give the natural chain unless they say otherwise; changes in a name come on top.
UniProt P31749: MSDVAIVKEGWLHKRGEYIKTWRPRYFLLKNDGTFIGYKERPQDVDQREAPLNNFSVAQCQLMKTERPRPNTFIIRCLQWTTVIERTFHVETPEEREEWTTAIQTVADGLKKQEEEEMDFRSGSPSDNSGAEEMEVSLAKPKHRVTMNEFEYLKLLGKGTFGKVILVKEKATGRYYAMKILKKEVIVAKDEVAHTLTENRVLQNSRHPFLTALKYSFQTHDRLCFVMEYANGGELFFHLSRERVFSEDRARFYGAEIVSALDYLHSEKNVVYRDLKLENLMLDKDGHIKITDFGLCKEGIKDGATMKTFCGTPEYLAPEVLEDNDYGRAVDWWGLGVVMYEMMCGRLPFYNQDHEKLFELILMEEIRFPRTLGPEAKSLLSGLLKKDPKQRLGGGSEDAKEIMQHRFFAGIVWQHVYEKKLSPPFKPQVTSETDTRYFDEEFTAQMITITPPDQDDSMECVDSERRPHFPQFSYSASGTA

target: full-length human recombinant active AKT-1 (Homo sapiens, UniProt P31749); assay: AKT-1 Kinase Assay (IMAP fluorescence polarization); assay type: biochemical; details: phosphorylation of fluorescently-labeled peptide (Crosstide), IMAP kit

Structure (SMILES)	IC50
C[C@@H]1CC(F)(F)c2ncnc(N3CCN(C(=O)[C@H](N)Cc4ccc(Cl)cc4)CC3)c21 [Example 56, (R)-2-amino-3-(4-chlorophenyl)-1-(4-((R)-7,7-difluoro-5-methyl-6,7-dihydro-5H-cyclopenta[d]pyrimidin-4-yl)piperazin-1-yl)propan-1-one]	< 10 µM
C[C@@H]1CCc2ncnc(N3CCN(C(=O)[C@H](N)Cc4ccccc4F)CC3)c21 [Example 79, (R)-2-amino-3-(2-fluorophenyl)-1-(4-((R)-5-methyl-6,7-dihydro-5H-cyclopenta[d]pyrimidin-4-yl)piperazin-1-yl)propan-1-one]	< 10 µM
C[C@@H]1C[C@H](F)c2ncnc(N3CCN(C(=O)[C@H](CN[C@@H]4CCOC4)c4ccc(Cl)cc4)CC3)c21 [Example 103, (S)-2-(4-chlorophenyl)-1-(4-((5R,7S)-7-fluoro-5-methyl-6,7-dihydro-5H-cyclopenta[d]pyrimidin-4-yl)piperazin-1-yl)-3-((R)-tetrahydrofuran-3-ylamino)propan-1-one]	< 10 µM
C[C@@H]1CCc2ncnc(N3CCN(C(=O)[C@H](N)Cc4ccc(F)cc4)CC3)c21 [Example 85, (R)-2-amino-3-(4-fluorophenyl)-1-(4-((R)-5-methyl-6,7-dihydro-5H-cyclopenta[d]pyrimidin-4-yl)piperazin-1-yl)propan-1-one]	< 10 µM
C[C@@H]1CCc2ncnc(N3CCN(C(=O)C(CN4CCC(F)(F)C4)c4ccc(Cl)cc4)CC3)c21 (stereo partly drawn) [Example 50, 2-(4-chlorophenyl)-3-(3,3-difluoropyrrolidin-1-yl)-1-(4-((R)-5-methyl-6,7-dihydro-5H-cyclopenta[d]pyrimidin-4-yl)piperazin-1-yl)propan-1-one]	< 10 µM
C[C@@H]1C[C@@H](F)c2ncnc(N3CCN(C(=O)[C@H](CNCC4CC4)c4ccc(Cl)c(F)c4)CC3)c21 [Example 136, (S)-2-(4-chloro-3-fluorophenyl)-3-(cyclopropylmethylamino)-1-(4-((5R,7R)-7-fluoro-5-methyl-6,7-dihydro-5H-cyclopenta[d]pyrimidin-4-yl)piperazin-1-yl)propan-1-one]	< 10 µM
CC(C)NC[C@@H](C(=O)N1CCN(c2ncnc3c2[C@H](C)C[C@@H]3F)CC1)c1ccc(Br)cc1 [Example 158, (S)-2-(4-bromophenyl)-1-(4-((5R,7S)-7-fluoro-5-methyl-6,7-dihydro-5H-cyclopenta[d]pyrimidin-4-yl)piperazin-1-yl)-3-(isopropylamino)propan-1-one]	< 10 µM
CC(C)NCC(C(=O)N1CCN(c2ncnc3c2[C@H](C)CC3)CC1)c1ccc(C(F)(F)F)cc1 (stereo partly drawn) [Example 46, 3-(isopropylamino)-1-(4-((R)-5-methyl-6,7-dihydro-5H-cyclopenta[d]pyrimidin-4-yl)piperazin-1-yl)-2-(4-(trifluoromethyl)phenyl)propan-1-one]	< 10 µM
C[C@@H]1C[C@@H](F)c2ncnc(N3CCN(C(=O)[C@H](CN)c4ccc(Br)cc4)CC3)c21 [Example 123, (S)-3-amino-2-(4-bromophenyl)-1-(4-((5R,7R)-7-fluoro-5-methyl-6,7-dihydro-5H-cyclopenta[d]pyrimidin-4-yl)piperazin-1-yl)propan-1-one]	< 10 µM
C[C@@H]1CCc2ncnc(N3CCN(C(=O)[C@H](N)Cc4ccc(C#N)cc4)C[C@@H]3C)c21 [Example 66, 4-((R)-2-amino-3-((S)-3-methyl-4-((R)-5-methyl-6,7-dihydro-5H-cyclopenta[d]pyrimidin-4-yl)piperazin-1-yl)-3-oxopropyl)benzonitrile]	< 10 µM
C[C@@H]1C[C@H](F)c2ncnc(N3CCN(C(=O)[C@@H](CN4CCOCC4)c4ccc(Cl)cc4)CC3)c21 [Example 116, (R)-2-(4-chlorophenyl)-1-(4-((5R,7S)-7-fluoro-5-methyl-6,7-dihydro-5H-cyclopenta[d]pyrimidin-4-yl)piperazin-1-yl)-3-morpholinopropan-1-one]	< 10 µM
C[C@@H]1CCc2ncnc(N3CCN(C(=O)C(CN4CCC4)c4ccc(Cl)cc4)CC3)c21 (stereo partly drawn) [Example 52, 3-(azetidin-1-yl)-2-(4-chlorophenyl)-1-(4-((R)-5-methyl-6,7-dihydro-5H-cyclopenta[d]pyrimidin-4-yl)piperazin-1-yl)propan-1-one]	< 10 µM
C[C@@H]1CCc2ncnc(N3CCN(C(=O)[C@H](N)Cc4ccc(C(F)(F)F)cc4)CC3)c21 [Example 62, (R)-2-amino-1-(4-((R)-5-methyl-6,7-dihydro-5H-cyclopenta[d]pyrimidin-4-yl)piperazin-1-yl)-3-(4-(trifluoromethyl)phenyl)propan-1-one]	< 10 µM
C[C@@H]1C[C@@H](F)c2ncnc(N3CCN(C(=O)[C@H](CNC4CCNCC4)c4ccc(Cl)cc4)CC3)c21 [Example 88, (S)-2-(4-chlorophenyl)-1-(4-((5R,7R)-7-fluoro-5-methyl-6,7-dihydro-5H-cyclopenta[d]pyrimidin-4-yl)piperazin-1-yl)-3-(piperidin-4-ylamino)propan-1-one]	< 10 µM
C[C@@H]1CCc2ncnc(N3CCN(C(=O)C(CN4CC[C@@H](F)C4)c4ccc(Cl)cc4)CC3)c21 (stereo partly drawn) [Example 55, 2-(4-chlorophenyl)-3-((R)-3-fluoropyrrolidin-1-yl)-1-(4-((R)-5-methyl-6,7-dihydro-5H-cyclopenta[d]pyrimidin-4-yl)piperazin-1-yl)propan-1-one]	< 10 µM
C[C@@H]1CCc2ncnc(N3CCN(C(=O)C(CN)c4ccc(Cl)c(Cl)c4)CC3)c21 (stereo partly drawn) [Example 27, (R,S)-3-amino-2-(3,4-dichlorophenyl)-1-(4-((R)-5-methyl-6,7-dihydro-5H-cyclopenta[d]pyrimidin-4-yl)piperazin-1-yl)propan-1-one dihydrochloride]	< 10 µM
C[C@@H]1CCc2ncnc(N3CCN(C(=O)C(CN4CCOCC4)c4ccc(Cl)cc4)CC3)c21 (stereo partly drawn) [Example 51, 2-(4-chlorophenyl)-1-(4-((R)-5-methyl-6,7-dihydro-5H-cyclopenta[d]pyrimidin-4-yl)piperazin-1-yl)-3-morpholinopropan-1-one]	< 10 µM
C[C@@H]1C[C@H](F)c2ncnc(N3CCN(C(=O)[C@H](CNC4CCOCC4)c4ccc(Cl)c(Cl)c4)CC3)c21 [Example 126, (S)-2-(3,4-dichlorophenyl)-1-(4-((5R,7S)-7-fluoro-5-methyl-6,7-dihydro-5H-cyclopenta[d]pyrimidin-4-yl)piperazin-1-yl)-3-(tetrahydro-2H-pyran-4-ylamino)propan-1-one]	< 10 µM
CC(C)NCC(C(=O)N1CCN(c2ncnc3c2[C@H](C)CC3)CC1)c1ccc(Br)cc1 (stereo partly drawn) [Example 33, (R,S)-2-(4-bromophenyl)-3-(isopropylamino)-1-(4-((R)-5-methyl-6,7-dihydro-5H-cyclopenta[d]pyrimidin-4-yl)piperazin-1-yl)propan-1-one dihydrochloride]	< 10 µM
C[C@@H]1CCc2ncnc(N3CCN(C(=O)[C@H](N)Cc4ccc(C(F)(F)F)cc4)C[C@@H]3C)c21 [Example 67, (R)-2-amino-1-((S)-3-methyl-4-((R)-5-methyl-6,7-dihydro-5H-cyclopenta[d]pyrimidin-4-yl)piperazin-1-yl)-3-(4-(trifluoromethyl)phenyl)propan-1-one]	< 10 µM
C[C@@H]1CCc2ncnc(N3CCN(C(=O)C(CCN)c4ccc(Br)cc4)CC3)c21 (stereo partly drawn) [Example 18, (R,S)-4-amino-2-(4-bromophenyl)-1-(4-((R)-5-methyl-6,7-dihydro-5H-cyclopenta[d]pyrimidin-4-yl)piperazin-1-yl)butan-1-one dihydrochloride]	< 10 µM
